Where two headings read alike, the source gives them in different places. These are yes or no findings as the source states them, for the method shown. Binding seen in cells or lysates may run through a third protein. A yes stands for co-enrichment or nearness to the bait. Other partners may have been found. For part of these data: A no says only that the protein was not detected with the bait. For part of these data: Tags and fused reporters may be left off the sequences shown.
How the values were obtained:
[1] = molecular target: T1, Inhibitor of Differentiation 4 (ID4) (human (endogenous in HCC70, MDA-MB-468, HCC1954, OVKATE and PDX tumours)) (UniProt P47928); assay: affinity purification with mass spectrometry
T1 sequence: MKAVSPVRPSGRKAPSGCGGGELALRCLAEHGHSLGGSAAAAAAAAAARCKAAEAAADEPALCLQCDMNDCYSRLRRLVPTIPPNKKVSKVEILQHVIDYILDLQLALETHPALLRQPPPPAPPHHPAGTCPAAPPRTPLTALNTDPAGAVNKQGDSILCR

The chains behind the UniProt entries cited, without tags or fusion partners. Residues count along the entry.
UniProt Q07955: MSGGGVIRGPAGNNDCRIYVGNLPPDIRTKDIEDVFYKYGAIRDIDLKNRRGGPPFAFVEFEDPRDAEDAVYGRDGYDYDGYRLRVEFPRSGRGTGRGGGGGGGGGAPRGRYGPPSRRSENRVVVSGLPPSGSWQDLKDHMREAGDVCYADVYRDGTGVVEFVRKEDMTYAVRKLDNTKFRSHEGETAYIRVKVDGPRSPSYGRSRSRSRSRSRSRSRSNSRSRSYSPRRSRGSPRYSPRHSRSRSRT
UniProt Q13443, residues 29-819: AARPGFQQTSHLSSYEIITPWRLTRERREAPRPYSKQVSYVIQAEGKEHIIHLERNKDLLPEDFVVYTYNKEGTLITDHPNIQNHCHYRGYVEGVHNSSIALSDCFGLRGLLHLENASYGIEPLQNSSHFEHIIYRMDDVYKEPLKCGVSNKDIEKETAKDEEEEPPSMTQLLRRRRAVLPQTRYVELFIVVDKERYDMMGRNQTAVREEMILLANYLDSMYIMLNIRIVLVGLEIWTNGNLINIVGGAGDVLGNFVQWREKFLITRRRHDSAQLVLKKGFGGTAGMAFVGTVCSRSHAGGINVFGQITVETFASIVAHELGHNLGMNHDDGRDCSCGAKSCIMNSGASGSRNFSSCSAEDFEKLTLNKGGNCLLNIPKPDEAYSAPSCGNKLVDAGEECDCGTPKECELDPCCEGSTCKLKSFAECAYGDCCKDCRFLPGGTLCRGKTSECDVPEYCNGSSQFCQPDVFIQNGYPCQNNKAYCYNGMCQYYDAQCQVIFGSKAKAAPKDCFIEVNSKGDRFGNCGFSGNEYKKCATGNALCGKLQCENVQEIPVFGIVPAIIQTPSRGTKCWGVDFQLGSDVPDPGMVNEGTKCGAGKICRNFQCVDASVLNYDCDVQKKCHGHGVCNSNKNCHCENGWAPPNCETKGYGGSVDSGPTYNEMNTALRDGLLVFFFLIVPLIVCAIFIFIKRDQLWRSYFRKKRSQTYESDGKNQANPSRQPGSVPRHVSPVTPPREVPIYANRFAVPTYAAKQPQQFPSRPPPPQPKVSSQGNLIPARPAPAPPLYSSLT
UniProt Q14676: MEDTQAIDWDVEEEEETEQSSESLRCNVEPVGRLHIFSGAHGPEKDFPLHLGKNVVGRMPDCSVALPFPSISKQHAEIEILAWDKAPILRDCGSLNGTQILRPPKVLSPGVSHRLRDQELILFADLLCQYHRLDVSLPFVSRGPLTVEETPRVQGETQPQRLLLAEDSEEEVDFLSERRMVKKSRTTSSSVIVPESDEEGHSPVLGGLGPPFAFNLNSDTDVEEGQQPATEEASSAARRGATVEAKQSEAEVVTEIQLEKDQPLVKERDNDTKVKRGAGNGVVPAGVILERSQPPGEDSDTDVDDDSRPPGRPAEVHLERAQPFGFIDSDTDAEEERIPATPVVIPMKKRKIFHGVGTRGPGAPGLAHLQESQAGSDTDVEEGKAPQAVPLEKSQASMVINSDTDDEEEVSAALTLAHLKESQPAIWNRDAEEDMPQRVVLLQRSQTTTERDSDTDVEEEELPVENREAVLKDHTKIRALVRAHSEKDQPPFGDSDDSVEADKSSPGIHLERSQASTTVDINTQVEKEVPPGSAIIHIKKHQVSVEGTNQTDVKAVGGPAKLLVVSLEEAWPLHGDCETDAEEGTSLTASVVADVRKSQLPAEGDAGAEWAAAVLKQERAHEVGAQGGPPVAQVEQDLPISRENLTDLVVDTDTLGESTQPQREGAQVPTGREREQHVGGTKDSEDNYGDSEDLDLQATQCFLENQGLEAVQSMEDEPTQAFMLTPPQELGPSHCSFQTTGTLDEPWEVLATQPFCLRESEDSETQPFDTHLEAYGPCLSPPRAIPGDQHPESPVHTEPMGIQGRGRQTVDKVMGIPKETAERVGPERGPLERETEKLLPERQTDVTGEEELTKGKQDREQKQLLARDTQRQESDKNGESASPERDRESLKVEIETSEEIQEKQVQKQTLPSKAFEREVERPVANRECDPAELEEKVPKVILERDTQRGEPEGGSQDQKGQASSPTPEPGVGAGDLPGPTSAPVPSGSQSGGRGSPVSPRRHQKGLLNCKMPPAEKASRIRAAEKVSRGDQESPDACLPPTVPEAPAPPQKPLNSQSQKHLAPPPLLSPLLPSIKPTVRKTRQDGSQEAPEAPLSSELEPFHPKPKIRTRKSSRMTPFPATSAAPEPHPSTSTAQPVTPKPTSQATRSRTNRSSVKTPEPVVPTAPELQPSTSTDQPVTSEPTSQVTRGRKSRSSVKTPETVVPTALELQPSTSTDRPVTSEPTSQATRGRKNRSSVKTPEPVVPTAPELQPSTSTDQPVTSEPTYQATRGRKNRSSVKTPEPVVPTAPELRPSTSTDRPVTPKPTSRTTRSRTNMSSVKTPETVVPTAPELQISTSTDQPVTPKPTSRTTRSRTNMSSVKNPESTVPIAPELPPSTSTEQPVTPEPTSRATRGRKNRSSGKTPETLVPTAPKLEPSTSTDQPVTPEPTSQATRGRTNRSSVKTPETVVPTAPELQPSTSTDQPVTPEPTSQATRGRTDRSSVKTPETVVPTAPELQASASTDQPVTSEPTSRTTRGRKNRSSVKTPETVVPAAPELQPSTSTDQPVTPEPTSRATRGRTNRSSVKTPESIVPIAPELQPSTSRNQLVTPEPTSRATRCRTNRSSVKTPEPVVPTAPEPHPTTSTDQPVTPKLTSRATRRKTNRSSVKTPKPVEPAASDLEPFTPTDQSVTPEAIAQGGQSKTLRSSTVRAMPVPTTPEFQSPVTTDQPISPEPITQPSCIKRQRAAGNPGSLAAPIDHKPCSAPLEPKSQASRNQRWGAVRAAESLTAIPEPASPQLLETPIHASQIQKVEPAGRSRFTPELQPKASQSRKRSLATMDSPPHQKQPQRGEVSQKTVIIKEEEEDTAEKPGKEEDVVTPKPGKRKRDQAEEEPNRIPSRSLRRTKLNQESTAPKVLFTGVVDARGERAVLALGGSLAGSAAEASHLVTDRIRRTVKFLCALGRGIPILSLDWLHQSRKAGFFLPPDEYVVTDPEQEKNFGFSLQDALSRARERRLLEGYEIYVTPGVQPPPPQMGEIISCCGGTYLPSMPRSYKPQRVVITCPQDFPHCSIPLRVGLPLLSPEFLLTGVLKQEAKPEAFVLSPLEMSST

[2] = molecular target: T1, Inhibitor of Differentiation 4 (ID4) (human (endogenous in HCC70, MDA-MB-468, HCC1954, OVKATE and PDX tumours)); assay: affinity purification with mass spectrometry; remark: listed apart in the source

SRSF1 (from UniProt Q07955 1-248)
binding [1]: no binding

disintegrin and metalloprotease domain 9 protein (ADAM9) (from UniProt Q13443 29-819)
binding [1]: binds

mediator of DNA damage checkpoint protein 1 (MDC1) (from UniProt Q14676 1-2089)
binding [2]: binds | binding [1]: binds

B1: Histidine Rich Glycoprotein (HRG) (protein, UniProt P04196 19-525)
chain: VSPTDCSAVEPEAEKALDLINKRRRDGYLFQLLRIADAHLDRVENTTVYYLVLDVQESDCSVLSRKYWNDCEPPDSRRPSEIVIGQCKVIATRHSHESQDLRVIDFNCTTSSVSSALANTKDSPVLIDFFEDTERYRKQANKALEKYKEENDDFASFRVDRIERVARVRGGEGTGYFVDFSVRNCPRHHFPRHPNVFGFCRADLFYDVEALDLESPKNLVINCEVFDPQEHENINGVPPHLGHPFHWGGHERSSTTKPPFKPHGSRDHHHPHKPHEHGPPPPPDERDHSHGPPLPQGPPPLLPMSCSSCQHATFGTNGAQRHSHNNNSSDLHPHKHHSHEQHPHGHHPHAHHPHEHDTHRQHPHGHHPHGHHPHGHHPHGHHPHGHHPHCHDFQDYGPCDPPPHNQGHCCHGHGPPPGHLRRRGPGKGPRPFHCRQIGSVYRLPPLRKGEVLPLPEANFPSFPLPHHKHPLKPDNQPFPQSVSESCPGKFKSGFPQVSMFFTHTFPK
binding [1]: binds

B2: spectrin repeat containing nuclear envelope family member 3 (SYNE3) (protein, UniProt Q6ZMZ3 1-975)
chain: MTQQPQDDFDRSVEDAQAWMKAVQDQLQVNDNTQGPRAALEARLWETEKICQLEPEGRVRVDLVLRMAEALLACCPGDQKPGILARLKDIKAQWEETVTYMTHCHSRIEWVWLHWSEYLLARDEFYRWFQKMMVTLEPHIELQLGLKEKQWQLSHAQVLLHNVDNQAVLLDRLLEEAASLFNRIGDPSVDEDAQKRMKAEYDAVKAKAQKRVDLLEQVAREHEEYQAGVDEFQLWLKAVVEKVNGCLGRNCKLPITQRLSTLQDIAKDFPRGEESLETLEEQSAGVIRNTSPLGAEKITGELEEMRKVLEKLRALWEEEEERLRGLLRSRGAWEQQIKQLEAELSEFRMVLQRLAQEGLQPAAKAGTEDELVAHWRRYSATRAALASEEPRVDRLQAQLKELIVFPHNLKPLSDSVIATIQEYQSLKVKSARLRNAAAVELWQHFQRPLQDLQLWKALAQRLLEVTASLPDLPSLHTFLPQIEAALMESSRLKELLTMLQLKKDLLIGIFGQERATALLEQVAGSMRDRDLLHNSLLQRKSKLQSLLAQHKDFGAAFEPLQRKLLDLQVRVQAEKGLQRDLPGKQAQLSRLQGLQEEGLDLGAQMEAARPLVQENPNHQHKMDQLSSDFQALQRSLEDLVDRCRQSVQEHCTFSHQLLELRQWIVVTTQKLEAHRGEAGPGDAESQEAEFERLVAEFPEKEAQLSLVEAQGWLVMEKSSPEGAAVVQEELRELAESWRALRLLEESLLSLIRNWHLQRMEVDSGKKMVFTNNIPKSGFLINPMDPIPRHRRRANLLQEEEGSHEDFSQLLRNFGQWLQVENSKLVRIIAMRTSTAEDLRTRKSKLQELEARVPEGQHLFENLLRLGPARGTSDELEDLRYQWMLYKSKLKDSGHLLTQSSPGEPTGFQKTRRWRGLGSLFRRACCVALPLQLLLLLFLLLLFLLPIREEDRSCTLANNFARSFTLMLRYNGPPPT
binding [1]: binds
